Results on one sequence are retold here after article PMC10488267.

Chains of the proteins cited; added tags and fusions are not shown.
UniProt Q15717, whole entry: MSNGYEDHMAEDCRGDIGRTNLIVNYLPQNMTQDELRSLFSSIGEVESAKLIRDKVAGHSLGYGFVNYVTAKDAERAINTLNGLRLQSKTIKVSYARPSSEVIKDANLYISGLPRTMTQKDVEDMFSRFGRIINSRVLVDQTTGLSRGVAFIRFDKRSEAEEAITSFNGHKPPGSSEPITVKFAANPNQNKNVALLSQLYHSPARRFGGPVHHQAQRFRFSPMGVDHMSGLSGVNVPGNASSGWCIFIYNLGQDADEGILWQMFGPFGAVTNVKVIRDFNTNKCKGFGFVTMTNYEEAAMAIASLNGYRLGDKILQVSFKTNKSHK

The exact form of at least one protein or probe is not confirmed. At least one result comes from cells or an extract, where the contact may be indirect. Weaker means in comparison with the reference protein, sequence or condition of that experiment.

The series addresses HuR (UniProt Q15717). Description: pull-down, western blot. As to conditions: biotin-TEG at 5' end, RNA folded in 10 mM Tris pH 7, 10 mM MgCl2, 100 mM KCl, binding in Buffer D lysate (20 mM Tris pH 7.9, 20% glycerol, 0.1 M KCl, 0.2 mM EDTA, 0.5 mM DTT, RiboLock), protein in an extract, label: 5' biotin-TEG. In general terms: A western blot detects proteins with antibodies after separation by electrophoresis.

Turning to “AUUUUUAUUUU [HuR-binding ARE motif RNA oligo]”, the binding result is, setting by setting: (100 µM STK018404 (dose-dependent decrease, Fig 4B)) “binds more weakly”; (100 µM STK217448 (no robust dose dependence)) “binds more weakly”; (100 µM Y044-6405 (no robust dose dependence)) “binds more weakly”; (no compound (positive control)) “binds”.
